Results from PubChem BioAssay AID274 (DTP/NCI, 2004).
The list is a part of this screen's results and no random one: it covers a few groups of compounds. Other doses and runs of a compound may be missing. T/C gives the treated animals as a percentage of the vehicle group. Some entries give survivors of the animals treated and no T/C: the source holds a T/C of zero for them, seemingly a mark for toxic or unscored doses. Some doses without a T/C left all or most animals alive at the check, yet need not have been tolerated: the source hardly ever lists a survival T/C far under the control, and the zero likely stands for such cases as well. Survivors were counted at the toxicity check, usually on the fifth day, unless a day is given; later deaths do not show. Schedule codes are those of the source, read here as Q, the interval in days (D) or hours (H), X, the number of doses. Where survival is the endpoint, this PubChem deposit counts one and a half times the control or more as active, and values a quarter to a half above the control carry no call in these data; other NCI protocols may use other cut-offs. Some entries show no survivor count and are marked so; the dose need not have been tolerated. Some entries were tested several times; their values stand side by side, smallest first.

Test system: BDF1 mice, Lewis lung carcinoma iv, survival T/C
Assay: NCI In Vivo Anticancer Drug Screen. Data for tumor model Lewis Lung Carcinoma (intravenous) in B6D2F1 (BDF1) mice
Settings: T/C endpoint: median survival time, higher T/C = longer survival
Method: The antitumor activity of compounds was measured in mice bearing transplantable tumors. Survival or tumor size were measured and the results are expressed as the measurement made in the treated group (T) divided by the measurement made in the vehicle treated control group (C). The tumor model used in this assay is Lewis Lung Carcinoma (intravenous) in B6D2F1 (BDF1) mice

Compound: NC1CCCCC1.NP(=O)(O)N(CCCl)CCCl
- T/C (dose: 25.0 mg/kg/injection, schedule: Q01DX001 (ip), vehicle: water): 134 % of control
- T/C (dose: 50.0 mg/kg/injection, schedule: Q01DX001 (ip), vehicle: water): 123 % of control
- T/C (dose: 100.0 mg/kg/injection, schedule: Q01DX001 (ip), vehicle: water): 93 % of control
- survivor count (dose: 200.0 mg/kg/injection, schedule: Q01DX001 (ip), vehicle: water): 7 of 10

Compound: O=NN(CCSCCCl)C(=O)NC1CCCCC1
- T/C (dose: 3.0 mg/kg/injection, schedule: Q01DX009 (ip), vehicle: saline with Tween-80): 98 % of control
- T/C (dose: 6.0 mg/kg/injection, schedule: Q01DX009 (ip), vehicle: saline with Tween-80): 108 % of control
- T/C (dose: 12.0 mg/kg/injection, schedule: Q01DX009 (ip), vehicle: saline with Tween-80): 97 % of control
- T/C (dose: 25.0 mg/kg/injection, schedule: Q01DX009 (ip), vehicle: saline with Tween-80): 108 % of control

Compound: CC1=CC(=O)C(N(CCCl)CCCl)=CC1=O
- T/C (dose: 0.78 mg/kg/injection, schedule: Q01DX009 (ip), vehicle: Klucel (hydroxypropylcellulose) (HPC)): 108 % of control [survivor count not shown]
- T/C (dose: 1.56 mg/kg/injection, schedule: Q01DX009 (ip), vehicle: Klucel (hydroxypropylcellulose) (HPC)): 116 [survivor count not shown] and 126 % of control [survivor count not shown]
- T/C (dose: 3.13 mg/kg/injection, schedule: Q01DX009 (ip), vehicle: Klucel (hydroxypropylcellulose) (HPC)): 129 % of control [survivor count not shown]

Compound: C[N+](CCCl)(CCCl)Cc1ccc([N+](=O)[O-])cc1
- T/C (dose: 1.56 mg/kg/injection, schedule: Q01DX009 (ip), vehicle: saline): 105 % of control [survivor count not shown]
- T/C (dose: 3.13 mg/kg/injection, schedule: Q01DX009 (ip), vehicle: saline): 98 % of control [survivor count not shown]
- T/C (dose: 6.25 mg/kg/injection, schedule: Q01DX009 (ip), vehicle: saline): 104 [survivor count not shown] and 112 % of control [survivor count not shown]
- T/C (dose: 12.5 mg/kg/injection, schedule: Q01DX009 (ip), vehicle: saline): 102 % of control [survivor count not shown]
